Test results published in patent publication EP0055702B1, “Antithrombotic treatment” (priority 1980, dated 1982).

Tested on: rats
Test: Rats fed bait containing 0.5% sodium bisulphite
Type: in vivo
Conditions: bait with 0.5% sodium bisulphite
Text: Five rats, each in a separate cage, were given a bait containing 0.5 percent by weight of sodium bisulphite. The bait consisted of cracked grains (wheat, corn, millet and corn meal). The amounts of bait eaten were summarized for an eleven day period.

Sodium bisulphite
g bait eaten (1 day, 250g rats 1-5): 27.8 g and 25.9 g and 26.7 g and 28.0 g and 27.0 g | g bait eaten (3 days, 250g rats): 19.2 g and 19.4 g and 11.4 g | g bait eaten (4 days, 250g rats): 18.9 g and 10.1 g and 10.4 g | g bait eaten (9 days, 250g rats): 26.8 g and 27.8 g and 25.7 g | g bait eaten (10 days, 250g rats): 22.7 g and 26.2 g and 26.3 g | g bait eaten (11 days, 250g rats): 23.8 g and 21.0 g and 22.8 g

“And” between values parts separate entries of the source, which are not always exact repeats. Equal entries are not always repeated.
